Consider one molecule from article PMC8092316.

For the assay, the target named is mCherry-tagged Pas2 (Cryptococcus neoformans). Description: affinity purification with mass spectrometry; CoIP/MS with mCherry-tagged Pas2 as bait from C. neoformans protein extracts; cells under normoxia and hypoxia.

Results are given in words; binding and its absence hold for the method and conditions named. In cells and extracts the contact can be indirect. A yes stands for co-enrichment or nearness to the bait. Other partners may have been found.

B1: Cir1 (protein, UniProt Q09RL2 1-952)
chain: MPETNTSAPQDNEHESSIGSRFENRFGPGWRVGFDNSNERGGVDEDAAEDSPPPRRESPGTSDKEIEAAEIETPNVERDELESDYGESVQQQGHVDSEEELDQKELIRRAAARRRHQNKKEEQGSDGQPSAKKRKPLAPANASSLPSPPPSTTAPASAHPPAGTCPGDGRCNGAGGKAGCEGCPTYNNSIAAGLVSASGSHAASHPPNVSEGIERPVRSIYDREHRPYGFDRFMENSMGNGLAPRALPRQSPDQRQAHPSPVTTQPLMHPTSEKGTPTRFSPDSDAETAAAPSGNGSGLAATPVGMSCRNCGTSTTPLWRRDEEGRPQCNACGLYHKLHGVPRPVAMKKTVIKRRKRVPAVGSTSTGGRGTNAELPSPASAPASVPTVTAPPPHVAPPLDDKAHRASPPFGHRAPQPHSEHRINRPLGPEAYGLAGRYGKPSTPAGMNLPGSTSTSSLNIPERKKPWWQEGREGRDREKEEKDREAREREGLAAEALLTMAPAANGGPSPEKRVEKSSGAGPVPASQSRRASIDVDMADNEPRGTKRKNEEEPRDVRDPRAPMSLGLHGMDRDRNRSKDRTFSHSPLISTDPRSGQPSNPHLPGSRLGQPPTSSASPYPATTQQGAPNRYSIYGPTTRDPLAGSSPYSFNASRYSNLHMRRDHSPSVGGAASKPNVLSPPRRASPAPTPDPRERFYPSPSAASAGSAPGSANAAMAGYGHYSMSRRELQEHREQLKEGKRWLEAMMAKTDKMLHMVENKMALTVEMSSGPSVVGPGDRPSLSSNASPVPPPAAIHKMSDDWEFEERERQRQKEIQRLEQEREMDRVEREKRERERERPGSYEDVRGRPRDKSEAERNRDILLASRRVSAVSPNPATRAATASRESASSSNGSAPQQGEKSHGGTNGVSGGKREGSQWDGEPVMSGVPLPRREQQNGIGSRLGRGLWSFDVRS
Turning to B1, the binding result is given as “binds”.
